{
  "source": "patent US12258332B2",
  "about": "“ASGPR cell surface receptor binding compounds and conjugates” (Lycia Therapeutics, Inc., priority 2021, dated 2025)",
  "tested_on": "HepG2 cells",
  "assay": "Uptake of Alexa488-labelled target IgE bound to omalizumab (OMA) conjugates in HepG2 cells, flow cytometry",
  "assay_type": "cell-based, human",
  "settings": "omalizumab (anti-IgE) conjugate bound to IgE-Alexa488, equal molar ratios; 1 hour",
  "protocol": "(§1) The omalizumab conjugates of Example 60 were bound to IgE-Alexa488 (prepared according to Example 62), as follows: equal molar ratios of omalizumab (anti-IgE) conjugate and IgE-Alexa488 were added in tissue culture media for 30 minutes at room temperature. The resulting anti-IgE conjugate:IgE antibody-Alexa488 compositions were added to HepG2 cells (100 k cells/50 ul per well, n=2), and Alexa488 fluorescence levels in the cells were measured at 1 hour by flow cytometry. As the fluorescently labelled target (IgE antibody) accumulates in cells, the fluorescence presents a way to measure total intracellular uptake by cells over time.\nas §1, with “OMA Ab” for “The omalizumab”, “example compounds I-160-I-163 and I-141” for “Example 60”, “by adapting procedure in” for “according to”, “61),” for “62),”, “OMA(anti-IgE)” for “omalizumab (anti-IgE)”",
  "note": "Entries after “also recorded” stand apart in the source; their conditions may differ. At least one compound was matched to its structure with a doubt left.",
  "data": [
    {"smiles": "CC(=O)N[C@H]1[C@H](OCCCCC(=O)NCCCNC(=O)CCOCC(COCCC(=O)NCCCNC(=O)CCCCO[C@@H]2O[C@H](CO)[C@H](O)[C@H](O)[C@H]2NC(C)=O)(COCCC(=O)NCCCNC(=O)CCCCO[C@@H]2O[C@H](CO)[C@H](O)[C@H](O)[C@H]2NC(C)=O)NC(=O)CCc2cn(CCOCCOCCOCCOCCOCCOCCOCCOCCC(=O)Oc3c(F)c(F)c(F)c(F)c3F)nn2)O[C@H](CO)[C@H](O)[C@@H]1O", "note": "[Compound I-129]", "values": [
      {"measurement": "relative uptake activity of Alexa488 labeled-target IgE in HepG2 cells", "value": "comparable activity to the reference conjugate; also recorded: comparable activity to a reference conjugate"}
    ]}
  ]
}
